## Primary screen of a compound library

Source: ChEMBL document CHEMBL3988442, “University of Dundee, Small-Polar-MMV Screening Library” (2021).

Mtb growth Cornell: 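Whole-cell assay for inhibitors of Mycobacterium tuberculosis growth, labelled Cornell in the record; the read-out is not stated. The concentration is filed as 10 mM, unlikely as a test dose, so the dose is not known. Higher means stronger inhibition (inferred from two other growth screens of the library). Of about 53,000 compounds tested this way, about 900 (1.7%) reached 50% or more in at least one test.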
Mtb heat-shock: 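Assay on Mycobacterium tuberculosis, filed only as a heat shock assay from Cornell; the read-out is not stated. The concentration is filed as 10 mM, unlikely as a test dose, so the dose is not known. The record gives no direction; compounds that gave an IC50 in retests scored well above the rest, so higher reads as stronger inhibition. Size under these conditions: about 69,000 compounds, about 930 of them at 50% or above in at least one test.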

The filed quantity is “Percent Effect” (%).
How 0% and 100% were set is not recorded. Most values in the screen are low, and negative values occur.
Compounds were drawn at random from those tested, without regard to their results.

- Cc1cc(C)n(CC2CCCN2C(=O)c2ccc3ccccc3n2)n1 (stereo unspecified) : Mtb growth Cornell: -41.27%; Mtb heat-shock: -14.46%
- CCNC(=O)N(C)CCCc1n[nH]c(N)c1C#N : Mtb growth Cornell: -21.34%; Mtb heat-shock: 9.978%
- [H][C@]12CC[C@@]3(N=C(c4ccccc4)NC3=O)[C@@]1([H])CN(C(=O)COC)C2 : Mtb growth Cornell: 5.275%; Mtb heat-shock: -27.68%
- COCCOc1ncccc1CNC(=O)N1CCCCCC1 : Mtb growth Cornell: 5.918%; Mtb heat-shock: 4.257%
- Cc1ccccc1N1CCN(CCS(=O)(=O)c2ccc(Br)cc2)CC1 : Mtb growth Cornell: -32.83%; Mtb heat-shock: -14.47%
- N#Cc1ccccc1N1CCN(CCC(=O)N2CCOCC2)CC1 : Mtb heat-shock: 13.12%
- COCC(O)CN1CCC(=O)N(CC2CC2)Cc2ccccc21 (stereo unspecified) : Mtb growth Cornell: -8.616%; Mtb heat-shock: 9.042%
- CC1CCN(CCCNS(=O)(=O)Cc2ccccc2F)CC1 : Mtb heat-shock: -13.4%
- O=C(c1ccnnc1)N1CC2(CCN(c3ncccn3)C2)C1 : Mtb growth Cornell: -51.32%; Mtb heat-shock: -18.85%
- O=C(O)c1cncc(Cc2ccccc2F)c1 : Mtb growth Cornell: 9.705%; Mtb heat-shock: 7.892%
- COc1cc(OC)c(C2CC(=O)Oc3cc(C)[nH]c(=O)c32)cc1OC (stereo unspecified) : Mtb growth Cornell: 12.78%; Mtb heat-shock: -3.747%
- CN(C(=O)CC1=CCCCC1)C1CCCN(CCc2ccccc2)C1 (stereo unspecified) : Mtb heat-shock: -17.06%
- CNC(=O)[C@@H](C1CC1)N1CCC[C@H]1C(=O)NCC(C)C.Cl : Mtb heat-shock: -21.58%
- COc1cc(COCC2CCN(Cc3cccnc3)CC2)cc(OC)c1.O=C(O)C(=O)O : Mtb growth Cornell: -7.851%; Mtb heat-shock: -22.42%
- O=C1CC(NCc2ccncc2)CN1CCc1cccc(Cl)c1 (stereo unspecified) : Mtb growth Cornell: 24%; Mtb heat-shock: 1.756%
- CCn1ccc(NC(=O)c2cc(C)on2)n1 : Mtb growth Cornell: 17.65%; Mtb heat-shock: -2.898%
- COC(C)(CNS(=O)(=O)c1cnn(C)c1)c1ccccc1F (stereo unspecified) : Mtb growth Cornell: 1.116%; Mtb heat-shock: 6.429%
- COc1ccc2c(C)c(C(=O)NC3CCN(S(C)(=O)=O)CC3)oc2c1 : Mtb growth Cornell: 11.25%; Mtb heat-shock: 16.95%
- O=C(O)C(F)(F)F.[H][C@]12C[C@H](C(=O)NC)N(C)[C@@]1([H])CN(S(=O)(=O)Cc1ccccc1)C2 : Mtb growth Cornell: 17.61%; Mtb heat-shock: -26.83%
- Fc1cnccc1CN1CCC2(CCN2c2ncccn2)C1.O=C(O)C(F)(F)F (stereo unspecified) : Mtb growth Cornell: -16.45%; Mtb heat-shock: -17.51%
- Cc1occc1C(=O)N1CCC2(CCN(Cc3nccs3)CC2)C1 : Mtb growth Cornell: -25.52%; Mtb heat-shock: -18.43%
- CS(=O)(=O)N1CCC2(CCCN(CCCc3ccccc3)C2=O)C1 (stereo unspecified) : Mtb growth Cornell: 29.8%; Mtb heat-shock: -11.47%
- O=C(CN1CCCC1Cn1cncn1)Nc1nncs1 (stereo unspecified) : Mtb growth Cornell: -7.297%; Mtb heat-shock: 6.115%
- O=C(NCCc1nccs1)c1cn(CCN2CCNCC2)nn1 : Mtb growth Cornell: -3.844%; Mtb heat-shock: -1.361%
- COc1cccc(-c2noc(-c3ccc(NCCCO)nc3)n2)c1OC : Mtb growth Cornell: -8.407%; Mtb heat-shock: -38.43%
- CN(CCCc1cnn(C)c1)C(=O)C1CCN(C(=O)C2CCC2)CC1 : Mtb growth Cornell: 7.954%; Mtb heat-shock: -5.048%
- Cc1nnc2n1CCN(C(=O)CN(C)Cc1ccccc1)C2 : Mtb growth Cornell: -27.21%; Mtb heat-shock: -15.29%
- Cc1csc(NC(=O)c2cnc(C3CCCN3)cn2)n1.Cl (stereo unspecified) : Mtb growth Cornell: 24.43%; Mtb heat-shock: 82.89%
- CN(C)C(=O)COC1COC2(CCN(S(C)(=O)=O)CC2)C1 (stereo unspecified) : Mtb growth Cornell: 5.711%; Mtb heat-shock: -0.375%
- CC(=O)c1cccc(S(=O)(=O)N2CSCC2C(=O)NCC(F)(F)F)c1 (stereo unspecified) : Mtb heat-shock: 14.19%
- Cc1csc(C(C)(C)NCC(=O)N2CCCC(C(N)=O)C2)n1 (stereo unspecified) : Mtb heat-shock: -20.44%
- Cc1ccc(F)c(S(=O)(=O)NCc2[nH]ncc2Br)c1 : Mtb heat-shock: 14%
- NC1(c2nc(-c3ccccc3)cc(=O)[nH]2)CCCCC1 : Mtb growth Cornell: 18.19%; Mtb heat-shock: 0.6123%
- [H][C@@]12CCN(Cc3nccs3)C[C@]1(C(=O)NCc1ccco1)CCO2 : Mtb growth Cornell: -8.656%; Mtb heat-shock: -6.29%
- Cc1cc(CN(C)C(=O)NCc2ccco2)no1 : Mtb growth Cornell: 15.69%; Mtb heat-shock: 20.02%
- COCC(O)CNC(=O)c1cc(COc2ccc3c(c2)CCCC3)on1 (stereo unspecified) : Mtb growth Cornell: 15.73%; Mtb heat-shock: -14.03%
- CN1CCCc2cc(-c3cncn3CCNC3CCS(=O)(=O)C3)ccc21.Cl (stereo unspecified) : Mtb growth Cornell: 6.115%; Mtb heat-shock: -0.7285%
- CCCN(Cc1cnc2ccccc2n1)Cc1ccccc1OC : Mtb growth Cornell: 28.1%; Mtb heat-shock: 19.04%
- CSc1ncccc1C(=O)NCCC(O)c1ccco1 (stereo unspecified) : Mtb growth Cornell: 8.321%; Mtb heat-shock: 3.247%